Experimental data reported in patent US20200339625A1, “NOVEL RADIOMETAL-BINDING COMPOUNDS FOR DIAGNOSIS OR TREATMENT OF PROSTATE SPECIFIC MEMBRANE ANTIGEN-EXPRESSING CANCER” (PROVINCIAL HEALTH SERVICES AUTHORITY, priority 2017, published 2020).

Experiments:
[1] = Radiation dosimetry calculation (OLINDA), extrapolated to humans (male); settings: human
Protocol: (§1) Internal dosimetry estimates were calculated using the organ level internal dose assessment (OLINDA) software v.2.0.^37 These estimates were performed for the mouse using the 25 g MOBY phantom,^38 for humans using the NURBS model for the adult male,^39 and for the tumors using the previously reported unit density sphere model.^40 All the phantoms and the sphere model are available in OLINDA and require the input of the total number of decays normalized by injected activity in units of MBq×h/MBq for each of the source organ/tumor.
Extrapolation of the mice biodistribution data to humans was performed using the method proposed by Kirschner et al.^41 and shown in the following equation: […]
Where morgan is the mass of the organ and M represents the total body mass. The subscripts indicate whether the values correspond to human or mouse. Masses for the organs and total body weight were taken from the simulated masses of the phantoms in OLINDA. […] The % ID/g of the blood was assumed to be the one for the heart contents of the phantom. This value was also used to calculate the bone marrow uptake based on the method described by Wessels et al.^42 in which we assumed a hematocrit fraction of 0.40 based on the patient values shown on that study. At the end, red marrow values used the blood measurements scaled by a factor of 0.32. In the human case, the fat, muscle, and seminal vesicles that are present in the biodistribution data are not modelled in the phantom so the numbers of decays present in these regions were included in the remainder of the body. The data was again fitted as for the mouse case and the values for the total number of decays in units of MBq×h/MBq were inputted in OLINDA.

[2] = Radiation dosimetry calculation (OLINDA), 25-g mouse
Protocol: 1.18 Radiation Dosimetry Calculation
as §1
The biodistribution data (available in the Tables 1 and 2, below) was used to determine the kinetics input values required by OLINDA. First, each of the values was decayed to its corresponding time point (the values on the table are shown at injection time). Then the different time-points of the uptake data (% ID/g) for each organ were fitted to both mono-exponential
functions using in-house software developed in Python. The best fit was selected based on maximizing the coefficient of determination (R2) of the fit and minimizing the residuals. The areas under the curves were analytically calculated based on the parameters obtained from the best fit of each organ and this provided the kinetic input values required by OLINDA.
In the mouse case, the adrenals, blood, fat, muscle, and seminal vesicles are not modeled in the phantom. These organs were grouped together and included in what OLINDA calls the remainder of the body.

[3] = target organ Remainder of the body
[4] = target organ Urinary bladder wall

SMILES | Organ dose ([1]; target organ Adrenals) [mGy/MBq] | Organ dose ([1]; target organ Brain) [mGy/MBq] | Organ dose ([1]; target organ Esophagus) [mGy/MBq] | Organ dose ([1]; target organ Eyes) [mGy/MBq] | Organ dose ([1]; target organ Gallbladder wall) [mGy/MBq] | Organ dose ([1]; target organ Heart wall) [mGy/MBq] | Organ dose ([1]; target organ Kidneys) [mGy/MBq] | Organ dose ([1]; target organ Left colon) [mGy/MBq] | Organ dose ([1]; target organ Liver) [mGy/MBq] | Organ dose ([1]; target organ Lungs) [mGy/MBq] | Organ dose ([1]; target organ Osteogenic Cells) [mGy/MBq] | Organ dose ([1]; target organ Pancreas) [mGy/MBq] | Organ dose ([1]; target organ Prostate) [mGy/MBq] | Organ dose ([1]; target organ Rectum) [mGy/MBq] | Organ dose ([1]; target organ Red marrow) [mGy/MBq] | Organ dose [1, 3] [mGy/MBq] | Organ dose ([1]; target organ Right colon) [mGy/MBq] | Organ dose ([1]; target organ Salivary glands) [mGy/MBq] | Organ dose ([1]; target organ Small intestine) [mGy/MBq] | Organ dose ([1]; target organ Spleen) [mGy/MBq] | further results
O=C([O-])CN1CCN(CC(=O)[O-])CCN(CC(=O)NCCCC[C@H](NC(=O)[C@H](CCC(=O)O)NC(=O)CCCc2ccc(I)cc2)C(=O)NC[C@H]2CC[C@H](C(=O)N[C@@H](Cc3ccc4ccccc4c3)C(=O)NCCCC[C@H](NC(=O)N[C@@H](CCC(=O)O)C(=O)O)C(=O)O)CC2)CCN(CC(=O)[O-])CC1.[177Lu+3] [^177Lu-HTK01169] | 1.21E−01 | 2.59E−03 | 1.70E−02 | 1.52E−02 | 1.88E−02 | 5.04E−02 | 1.90E+00 | 3.06E−02 | 2.87E−02 | 4.51E−02 | 1.54E−02 | 1.69E−02 | 1.70E−02 | 2.21E−02 | 2.31E−02 | 2.70E−02 | 2.38E−02 | 1.56E−02 | 2.85E−02 | 1.24E−01 | Organ dose ([1]; target organ Stomach Wall): 2.02E−02 mGy/MBq; Organ dose ([1]; target organ Testes): 3.17E−02 mGy/MBq; Organ dose ([1]; target organ Thymus): 1.64E−02 mGy/MBq; Organ dose ([1]; target organ Thyroid): 1.60E−02 mGy/MBq; Organ dose [1, 4]: 5.19E−02 mGy/MBq; Organ dose ([2]; target organ Brain): 9.06E−01 mGy/MBq; Organ dose ([2]; target organ Heart): 1.79E+00 mGy/MBq; Organ dose ([2]; target organ Kidneys): 4.82E+01 mGy/MBq; Organ dose ([2]; target organ Large intestine): 2.66E+00 mGy/MBq; Organ dose ([2]; target organ Liver): 2.50E+00 mGy/MBq; Organ dose ([2]; target organ Lungs): 2.32E+00 mGy/MBq; Organ dose ([2]; target organ Pancreas): 3.64E+00 mGy/MBq; Organ dose [2, 3]: 2.21E+00 mGy/MBq; Organ dose ([2]; target organ Skeleton): 6.22E+01 mGy/MBq; Organ dose ([2]; target organ Small intestine): 2.35E+00 mGy/MBq; Organ dose ([2]; target organ Spleen): 5.62E+00 mGy/MBq; Organ dose ([2]; target organ Stomach wall): 2.41E+00 mGy/MBq; Organ dose ([2]; target organ Testes): 1.95E+00 mGy/MBq; Organ dose ([2]; target organ Thyroid): 1.25E+00 mGy/MBq; Organ dose [2, 4]: 8.25E+00 mGy/MBq
O=C([O-])CN1CCN(CC(=O)[O-])CCN(CC(=O)NCC2CCC(C(=O)N[C@@H](Cc3ccc4ccccc4c3)C(=O)NCCCC[C@H](NC(=O)N[C@@H](CCC(=O)O)C(=O)O)C(=O)O)CC2)CCN(CC(=O)[O-])CC1.[177Lu+3] (some centres unmarked) [^177Lu-PSMA-617, reference compound] | 7.64E−03 | 4.32E−04 | 7.60E−04 | 6.80E−04 | 8.76E−04 | 1.00E−03 | 1.11E−01 | 1.81E−03 | 1.37E−03 | 1.81E−03 | 8.30E−04 | 7.60E−04 | 1.17E−03 | 1.45E−03 | 7.59E−04 | 1.70E−03 | 1.31E−03 | 6.98E−04 | 1.72E−03 | 4.42E−03 | Organ dose ([1]; target organ Stomach Wall): 1.69E−03 mGy/MBq; Organ dose ([1]; target organ Testes): 1.05E−03 mGy/MBq; Organ dose ([1]; target organ Thymus): 7.19E−04 mGy/MBq; Organ dose ([1]; target organ Thyroid): 7.11E−04 mGy/MBq; Organ dose [1, 4]: 6.63E−02 mGy/MBq; Organ dose ([2]; target organ Brain): 5.19E−02 mGy/MBq; Organ dose ([2]; target organ Heart): 7.72E−02 mGy/MBq; Organ dose ([2]; target organ Kidneys): 2.82E+00 mGy/MBq; Organ dose ([2]; target organ Large intestine): 2.10E−01 mGy/MBq; Organ dose ([2]; target organ Liver): 1.31E−01 mGy/MBq; Organ dose ([2]; target organ Lungs): 1.07E−01 mGy/MBq; Organ dose ([2]; target organ Pancreas): 2.08E−01 mGy/MBq; Organ dose [2, 3]: 1.77E−01 mGy/MBq; Organ dose ([2]; target organ Skeleton): 2.48E+00 mGy/MBq; Organ dose ([2]; target organ Small intestine): 1.69E−01 mGy/MBq; Organ dose ([2]; target organ Spleen): 2.58E−01 mGy/MBq; Organ dose ([2]; target organ Stomach wall): 1.81E−01 mGy/MBq; Organ dose ([2]; target organ Testes): 2.07E−01 mGy/MBq; Organ dose ([2]; target organ Thyroid): 5.94E−02 mGy/MBq; Organ dose [2, 4]: 1.26E+01 mGy/MBq
